Values from PubChem BioAssay AID1224828 (NIAID, 2016).
Assay: 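Regulators linking TLR4 signalling to p65 nuclear translocation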 (primary screen). Cell system: mouse RAW264.7 G9 macrophage reporter cells (GFP-p65, Tnf promoter-mCherry). Reagent: siRNA pool against mouse genes, 100 nM. Timing: 2 days siRNA transfection, then 40 min LPS before fixation. Conditions: LPS (Salmonella minnesota R595) at 10 ng/ml. Detection: 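Imaged p65 nuclear translocation ratio, normalised to the plate median, converted to robust z-scores and averaged across two replicates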. Direction: p65 translocation robust z-score: higher = more nuclear NF-kappaB p65 after LPS than the plate median; nuclear/cytoplasmic p65 ratio: higher = more nuclear NF-kappaB p65. Hit rule: 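Called active when z exceeds 3.3 or falls under -1.56 (median of Tlr4 controls), giving activity score of at least 50; no calls for control wells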. Calls: active = hit (p65 shift raised or lowered); inactive = no clear change.
This is one part, drawn at random, of about 17,000 reagents. 762 of them (4.5%) were called active. 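Active calls include both raised and lowered p65 entry, mostly lowered; wells with fewer than 50 cells lack a z-score.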 Raw values vary from plate to plate and are shown uncorrected. A number with no mark means an inactive call. The numbers tell different reagents against one gene apart.

| gene | reagent no. | p65 translocation robust z-score | nuclear/cytoplasmic p65 ratio, rep 1 | nuclear/cytoplasmic p65 ratio, rep 2 | low cell count flag |
| --- | --- | --- | --- | --- | --- |
| Ctsa (cathepsin A) | 1 | 0.81 | 1.61 | 1.51 | enough cells to score |
| Rasa4 (RAS p21 protein activator 4) | 1 | -0.66 | 1.44 | 1.41 | enough cells to score |
| Cpb1 (carboxypeptidase B1) | 1 | -0.28 | 1.46 | 1.33 | enough cells to score |
| Gm4861 (predicted gene 4861) | 1 | -0.36 | 1.41 | 1.46 | enough cells to score |
| Gtf2h5 (general transcription factor IIH, polypeptide 5) | 1 | 1.34 | 1.65 | 1.86 | enough cells to score |
| Rffl (ring finger and FYVE like domain containing protein) | 1 | -1.14 | 1.44 | 1.44 | enough cells to score |
| Dr1 (down-regulator of transcription 1) | 1 | -0.17 | 1.46 | 1.35 | enough cells to score |
| Rdh14 (retinol dehydrogenase 14 (all-trans and 9-cis)) | 1 | 0.98 | 1.61 | 1.28 | enough cells to score |
| Immt (inner membrane protein, mitochondrial) | 1 | 2.51 | 1.89 | 1.78 | enough cells to score |
| Vmn2r81 (vomeronasal 2, receptor 81) | 1 | -0.57 | 1.5 | 1.62 | enough cells to score |
| Or4f15 (olfactory receptor family 4 subfamily F member 15) | 1 | 2.35 | 1.94 | 1.75 | enough cells to score |
| Cd19 (CD19 antigen) | 1 | -0.29 | 1.4 | 1.34 | enough cells to score |
| Hmmr (hyaluronan mediated motility receptor (RHAMM)) | 1 | -0.87 | 1.32 | 1.26 | enough cells to score |
| Prpf19 (pre-mRNA processing factor 19) | 1 | – | 1.07 | 0 | fewer than 50 cells per well; well left out of scoring |
| Bicd2 (BICD cargo adaptor 2) | 1 | -0.82 | 1.49 | 1.5 | enough cells to score |
| Tmco4 (transmembrane and coiled-coil domains 4) | 1 | – | 1.34 | 1.28 | fewer than 50 cells per well; well left out of scoring |
| Nagk (N-acetylglucosamine kinase) | 1 | -0.34 | 1.64 | 1.32 | enough cells to score |
| Sh3bgrl3 (SH3 domain binding glutamic acid-rich protein-like 3) | 1 | – | 1.6 | 1.21 | fewer than 50 cells per well; well left out of scoring |
| 4930522H14Rik (RIKEN cDNA 4930522H14 gene) | 1 | -0.93 | 1.15 | 1.21 | enough cells to score |
| Taf13 (TATA-box binding protein associated factor 13) | 1 | 1.11 | 1.59 | 1.76 | enough cells to score |
| Pigh (phosphatidylinositol glycan anchor biosynthesis, class H) | 1 | -0.08 | 1.39 | 1.27 | enough cells to score |
| Pdcd4 (programmed cell death 4) | 1 | 1.12 | 1.64 | 1.52 | enough cells to score |
| Pik3ca | 1 | -0.7 | 1.57 | 1.3 | enough cells to score |
| Krtap9-1 (keratin associated protein 9-1) | 1 | -2.29 (active) | 1.23 | 1.12 | enough cells to score |
| Ppox (protoporphyrinogen oxidase) | 1 | -0.22 | 1.46 | 1.39 | enough cells to score |
| Exoc4 (exocyst complex component 4) | 1 | – | 1.19 | 1.04 | fewer than 50 cells per well; well left out of scoring |
| Ccnl1 (cyclin L1) | 1 | 0.02 | 1.23 | 1.38 | enough cells to score |
| 2410002F23Rik (RIKEN cDNA 2410002F23 gene) | 1 | – | 1.22 | 1.16 | fewer than 50 cells per well; well left out of scoring |
| Rubcn | 1 | -0.1 | 1.37 | 1.41 | enough cells to score |
| Plekhb2 (pleckstrin homology domain containing B2) | 1 | -0.34 | 1.35 | 1.17 | enough cells to score |
| Ccdc33 (coiled-coil domain containing 33) | 1 | 1.19 | 1.44 | 1.41 | enough cells to score |
| Pex7 (peroxisomal biogenesis factor 7) | 1 | 1.2 | 1.63 | 1.55 | enough cells to score |
| Carmil1 (capping protein regulator and myosin 1 linker 1) | 1 | -1.35 | 1.51 | 1.35 | enough cells to score |
| Carmil1 (capping protein regulator and myosin 1 linker 1) | 2 | 0.61 | 1.69 | 1.86 | enough cells to score |
| Pcdhb6 (protocadherin beta 6) | 1 | 0.12 | 1.5 | 1.22 | enough cells to score |
| Tmem230 (transmembrane protein 230) | 1 | – | 1.22 | 1.51 | fewer than 50 cells per well; well left out of scoring |
| Samd12 (sterile alpha motif domain containing 12) | 1 | – | 1.37 | 1.63 | fewer than 50 cells per well; well left out of scoring |
| Bmp2k (BMP2 inducible kinase) | 1 | -0.11 | 1.61 | 1.42 | enough cells to score |
| Arl6 (ADP-ribosylation factor-like 6) | 1 | – | 1 | 1.59 | fewer than 50 cells per well; well left out of scoring |
| Gm2716 (predicted gene 2716) | 1 | – | 1.52 | 1.34 | fewer than 50 cells per well; well left out of scoring |
| Pcmt1 (protein-L-isoaspartate (D-aspartate) O-methyltransferase 1) | 1 | -0.43 | 1.38 | 1.07 | enough cells to score |
| Or51g2 (olfactory receptor family 51 subfamily G member 2) | 1 | 1.59 | 1.38 | 1.45 | enough cells to score |
| Rab21 (RAB21, member RAS oncogene family) | 1 | -1.03 | 1.39 | 1.35 | enough cells to score |
| Ifrd2 (interferon-related developmental regulator 2) | 1 | – | 1.17 | 1.1 | fewer than 50 cells per well; well left out of scoring |
| Rxra (retinoid X receptor alpha) | 1 | -1.17 | 1.37 | 1.34 | enough cells to score |
| Clec10a (C-type lectin domain family 10, member A) | 1 | -0.59 | 1.84 | 1.28 | enough cells to score |
| Snrpe (small nuclear ribonucleoprotein E) | 1 | – | 1.28 | 1.08 | fewer than 50 cells per well; well left out of scoring |
| Dpp9 (dipeptidylpeptidase 9) | 1 | – | 1.27 | 1.38 | fewer than 50 cells per well; well left out of scoring |
| Hpgd (hydroxyprostaglandin dehydrogenase 15 (NAD)) | 1 | 1.14 | 1.89 | 1.64 | enough cells to score |
| Zp1 (zona pellucida glycoprotein 1) | 1 | 0.21 | 1.41 | 1.3 | enough cells to score |
| Fcho2 (FCH domain only 2) | 1 | 1.45 | 1.49 | 1.72 | enough cells to score |
| Phc2 (polyhomeotic 2) | 1 | 0.32 | 1.59 | 1.41 | enough cells to score |
| Srpra (signal recognition particle receptor alpha) | 1 | 0.04 | 1.51 | 1.6 | enough cells to score |
| Bbs2 (Bardet-Biedl syndrome 2) | 1 | 0.1 | 1.6 | 1.66 | enough cells to score |
| Or14a259 (olfactory receptor family 14 subfamily A member 259) | 1 | 0.64 | 1.71 | 1.5 | enough cells to score |
| Crybb2 (crystallin, beta B2) | 1 | -1.4 | 1.27 | 1.21 | enough cells to score |
| Rhob (ras homolog family member B) | 1 | 0.79 | 1.81 | 1.45 | enough cells to score |
| 1700029M20Rik (RIKEN cDNA 1700029M20 gene) | 1 | – | 1.11 | 1.28 | fewer than 50 cells per well; well left out of scoring |
| Zdhhc1 (zinc finger, DHHC domain containing 1) | 1 | -0.13 | 1.31 | 1.3 | enough cells to score |
